# Laboratory results: PubChem BioAssay AID504764 (Drosophila RNAi Screening Center, 2011)
# Test: 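Genes whose knock-down alters Notch-dependent transcription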 (primary screen)
# Cell system: Drosophila Kc167 cells
# Reagents: long dsRNA against Drosophila genes
# Timing: about 5 days (4 days dsRNA, then 24 h after transfection)
# Treatment: transfection of constitutively active membrane-tethered Notch lacking the extracellular domain, read 24 h later
# Measurement: 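Firefly luciferase from an E(spl)m3 reporter with active Notch, plus control-promoter and uninduced reporter wells for normalisation; unnormalised counts, duplicate wells a and b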
# Scale: induced reporter light, run 1, well a and induced reporter light, run 1, well b: higher = more light from the Notch target reporter with active Notch; control promoter light, run 1, well a and control promoter light, run 1, well b: higher = more light from the viral control promoter (cell number, transfection, viability); uninduced reporter light, run 1, well a: higher = more light from the Notch target reporter without active Notch
# Active means: 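Wells with low control signal or poorly matching duplicates excluded; duplicates averaged; per source plate, z beyond ±2 for induced/control log2 ratio or beyond ±1.8 for induced/uninduced marks a hit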
# Calls: active = modifier hit (raised or lowered Notch signal); inactive = not a hit
# The screen tested about 22,000 reagents; shown is a random part of those with a known target gene and a result. In the full data, 403 (1.9%) got an active call. 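Unnormalised raw counts per well; ratio z-scores behind the hit calls and whether each hit raises or lowers signal are not deposited.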 Reagents against one gene are numbered here. The record does not give: the amount of reagent.
The opening 3 records, ahead of the listing:
Gene,dsRNA no.,"induced reporter light, run 1, well a","induced reporter light, run 1, well b","control promoter light, run 1, well a","control promoter light, run 1, well b","uninduced reporter light, run 1, well a",Call
Wdr37 (GeneID 42218),1,2438,2720,2615,2815,365,inactive
beat-IV (GeneID 42778),1,1.63e5,1.61e5,2.03e5,2.20e5,14455,inactive
beat-IV (GeneID 42778),2,2.33e5,2.00e5,3.08e5,3.51e5,19730,inactive

Main list, from the first entry:
Gene,dsRNA no.,"induced reporter light, run 1, well a","induced reporter light, run 1, well b","control promoter light, run 1, well a","control promoter light, run 1, well b","uninduced reporter light, run 1, well a",Call
Wdr37 (GeneID 42218),1,2438,2720,2615,2815,365,inactive
beat-IV (GeneID 42778),1,1.63e5,1.61e5,2.03e5,2.20e5,14455,inactive
beat-IV (GeneID 42778),2,2.33e5,2.00e5,3.08e5,3.51e5,19730,inactive
Inx5 (GeneID 32901),1,1.05e5,99975,1.30e5,1.52e5,13880,inactive
CG10916 (GeneID 37081),1,1.04e5,95630,1.51e5,2.13e5,8135,inactive
Mnn1 (GeneID 33991),1,2.05e5,1.47e5,1.77e5,1.64e5,10125,inactive
eIF3b (GeneID 36981),1,7255,5205,7245,6625,1495,inactive
alphaTub67C (GeneID 39130),1,1.71e5,1.31e5,2.26e5,1.95e5,11740,inactive
coro (GeneID 35596),1,65950,81900,58205,60795,4275,inactive
RpL27 (GeneID 43103),1,21365,19355,22085,16120,1605,inactive
CG33771 (GeneID 3772424),1,1.72e5,2.11e5,3.10e5,3.09e5,11900,inactive
SA2 (GeneID 38167),1,1.65e5,1.05e5,1.71e5,2.26e5,6910,inactive
Naus (GeneID 37076),1,1.08e5,99390,1.89e5,1.90e5,9045,inactive
Naus (GeneID 37076),2,65960,58875,75565,62025,8130,inactive
CG14232 (GeneID 32983),1,1.30e5,1.31e5,90985,67190,10040,inactive
CG42369 (GeneID 33894),1,1.23e5,1.04e5,1.36e5,99230,7990,inactive
Tbp (GeneID 37476),1,16685,14085,10110,8605,1770,inactive
CG10336 (GeneID 35122),1,1.79e5,1.83e5,2.07e5,1.97e5,15200,inactive
CG14856 (GeneID 41790),1,1.92e5,1.94e5,2.04e5,1.89e5,13840,inactive
Polr2K (GeneID 5740790),1,1.99e5,2.08e5,3.02e5,3.49e5,19310,inactive
CG8701 (GeneID 35812),1,1.75e5,2.11e5,2.00e5,1.76e5,16125,inactive
CG14354 (GeneID 43120),1,1.53e5,1.61e5,2.08e5,1.99e5,13220,inactive
CG17598 (GeneID 33140),1,1.19e5,85050,68785,47890,10095,inactive
CG8668 (GeneID 34107),1,81900,78120,75045,61480,6565,inactive
CG5079 (GeneID 43089),1,18865,15738,15360,14150,5720,inactive
CG11249 (GeneID 40409),1,1.38e5,1.41e5,1.25e5,1.10e5,7375,inactive
klg (GeneID 42707),1,72930,76795,1.21e5,86390,9650,inactive
klg (GeneID 42707),2,1.10e5,1.12e5,1.53e5,1.57e5,9945,inactive
Cyp6a21 (GeneID 36665),1,98860,84630,1.35e5,1.28e5,9615,inactive
CG18662 (GeneID 50437),1,1.46e5,1.70e5,82000,93455,20855,inactive
Pep (GeneID 45961),1,1.36e5,1.60e5,86200,98025,11085,inactive
CG32444 (GeneID 40406),1,1.21e5,1.25e5,71560,87270,9405,inactive
CG2127 (GeneID 35811),1,2.11e5,1.70e5,2.33e5,1.78e5,15020,inactive
AstC (GeneID 34537),1,1.31e5,1.74e5,69665,1.01e5,19120,inactive
CG31661 (GeneID 33330),1,1.21e5,1.06e5,1.25e5,95480,8970,inactive
CG15909 (GeneID 35572),1,1.51e5,1.76e5,1.59e5,1.42e5,11810,inactive
CG16989 (GeneID 31026),1,1.04e5,89205,1.82e5,1.61e5,7460,inactive
pad (GeneID 41981),1,1.87e5,2.19e5,1.79e5,1.91e5,16920,inactive
Csgalnact (GeneID 36079),1,2.12e5,2.08e5,2.48e5,2.24e5,19270,inactive
CG14244 (GeneID 50080),1,1.48e5,1.66e5,1.96e5,2.24e5,15315,inactive
CG14926 (GeneID 34567),1,2.13e5,2.15e5,1.24e5,1.48e5,21705,inactive
APC10 (GeneID 36975),1,1.04e5,92545,1.05e5,99970,8025,inactive
Rpt6R (GeneID 43635),1,1.51e5,1.17e5,1.89e5,1.71e5,14125,inactive
RpS28a (GeneID 43564),1,93565,95335,1.51e5,1.48e5,7792,inactive
CG13186 (GeneID 36294),1,84120,1.44e5,1.51e5,1.59e5,11745,inactive
CG17362 (GeneID 39545),1,1.61e5,1.93e5,3.02e5,2.15e5,8475,inactive
f-cup (GeneID 41677),1,1.18e5,1.22e5,49580,46070,9790,inactive
TTLL4B (GeneID 33609),1,1.52e5,1.90e5,1.93e5,1.99e5,16525,inactive
CG8197 (GeneID 35912),1,1.86e5,1.79e5,2.12e5,2.09e5,17530,inactive
CG32694 (GeneID 31933),1,84490,84080,1.30e5,1.08e5,7225,inactive
CG32694 (GeneID 31933),2,1.16e5,1.11e5,1.65e5,1.55e5,10470,inactive
CG32694 (GeneID 31933),3,,,,,,inactive
